Data reported in article doi:10.1101/2024.07.12.603302.

Sequences of proteins named here, by UniProt entry; tags and fusion partners are left off. A change or cut given only in a name is not applied to a line headed by its entry.
UniProt P62136: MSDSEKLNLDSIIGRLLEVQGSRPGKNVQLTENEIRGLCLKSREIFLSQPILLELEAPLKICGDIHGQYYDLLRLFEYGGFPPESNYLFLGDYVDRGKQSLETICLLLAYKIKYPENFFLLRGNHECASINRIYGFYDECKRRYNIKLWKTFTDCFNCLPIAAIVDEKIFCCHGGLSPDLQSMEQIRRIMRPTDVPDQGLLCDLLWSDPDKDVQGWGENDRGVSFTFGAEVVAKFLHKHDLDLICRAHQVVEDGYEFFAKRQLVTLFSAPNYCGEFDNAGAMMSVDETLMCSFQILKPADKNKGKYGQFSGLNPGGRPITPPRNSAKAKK

T1: Full length Avitag-PNUTS 1-940 (UniProt Q96QC0)
T1 sequence: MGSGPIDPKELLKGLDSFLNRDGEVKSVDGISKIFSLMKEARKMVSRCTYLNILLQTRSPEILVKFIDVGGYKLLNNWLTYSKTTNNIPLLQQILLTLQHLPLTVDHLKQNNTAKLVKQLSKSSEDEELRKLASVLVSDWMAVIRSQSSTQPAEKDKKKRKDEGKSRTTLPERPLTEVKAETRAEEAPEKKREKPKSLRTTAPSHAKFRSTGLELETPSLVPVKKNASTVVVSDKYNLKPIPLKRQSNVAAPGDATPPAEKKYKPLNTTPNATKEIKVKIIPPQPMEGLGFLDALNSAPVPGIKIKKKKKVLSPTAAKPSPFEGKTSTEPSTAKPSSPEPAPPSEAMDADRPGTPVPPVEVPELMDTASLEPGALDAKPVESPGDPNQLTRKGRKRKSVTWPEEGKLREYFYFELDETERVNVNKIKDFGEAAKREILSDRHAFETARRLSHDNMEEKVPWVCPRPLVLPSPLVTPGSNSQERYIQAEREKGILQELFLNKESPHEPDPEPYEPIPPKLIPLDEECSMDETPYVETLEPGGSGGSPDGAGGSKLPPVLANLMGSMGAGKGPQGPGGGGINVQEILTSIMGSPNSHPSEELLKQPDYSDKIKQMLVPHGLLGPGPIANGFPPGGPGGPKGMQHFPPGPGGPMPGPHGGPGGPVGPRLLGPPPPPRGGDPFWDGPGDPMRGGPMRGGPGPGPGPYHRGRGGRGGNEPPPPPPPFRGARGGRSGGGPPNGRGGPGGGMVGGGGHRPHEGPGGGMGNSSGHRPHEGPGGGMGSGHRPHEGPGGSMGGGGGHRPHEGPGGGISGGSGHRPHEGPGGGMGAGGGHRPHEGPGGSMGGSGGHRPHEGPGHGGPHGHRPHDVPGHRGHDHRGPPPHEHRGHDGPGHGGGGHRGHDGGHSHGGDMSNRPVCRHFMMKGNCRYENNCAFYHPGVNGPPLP

B1: PPP1R2 (Inhibitor-2) (protein, UniProt P41236 1-205)
chain: MAASTASHRPIKGILKNKTSTTSSMVASAEQPRGNVDEELSKKSQKWDEMNILATYHPADKDYGLMKIDEPSTPYHSMMGDDEDACSDTEATEAMAPDILARKLAAAEGLEPKYRIQEQESSGEEDSDLSPEEREKKRQFEMKRKLHYNEGLNIKLARQLISKDLHDDDEDEEMLETADGESMNTEESNQGSTPSDQQQNKLRSS
B2: PPP1R7 (protein, UniProt Q15435 1-360)
chain: MAAERGAGQQQSQEMMEVDRRVESEESGDEEGKKHSSGIVADLSEQSLKDGEERGEEDPEEEHELPVDMETINLDRDAEDVDLNHYRIGKIEGFEVLKKVKTLCLRQNLIKCIENLEELQSLRELDLYDNQIKKIENLEALTELEILDISFNLLRNIEGVDKLTRLKKLFLVNNKISKIENLSNLHQLQMLELGSNRIRAIENIDTLTNLESLFLGKNKITKLQNLDALTNLTVLSMQSNRLTKIEGLQNLVNLRELYLSHNGIEVIEGLENNNKLTMLDIASNRIKKIENISHLTELQEFWMNDNLLESWSDLDELKGARSLETVYLERNPLQKDPQYRRKVMLALPSVRQIDATFVRF
B3: FIP1L1 (protein, UniProt Q6UN15 1-594)
chain: MSAGEVERLVSELSGGTGGDEEEEWLYGGPWDVHVHSDLAKDLDENEVERPEEENASANPPSGIEDETAENGVPKPKVTETEDDSDSDSDDDEDDVHVTIGDIKTGAPQYGSYGTAPVNLNIKTGGRVYGTTGTKVKGVDLDAPGSINGVPLLEVDLDSFEDKPWRKPGADLSDYFNYGFNEDTWKAYCEKQKRIRMGLEVIPVTSTTNKITAEDCTMEVTPGAEIQDGRFNLFKVQQGRTGNSEKETALPSTKAEFTSPPSLFKTGLPPSRNSTSSQSQTSTASRKANSSVGKWQDRYGRAESPDLRRLPGAIDVIGQTITISRVEGRRRANENSNIQVLSERSATEVDNNFSKPPPFFPPGAPPTHLPPPPFLPPPPTVSTAPPLIPPPGFPPPPGAPPPSLIPTIESGHSSGYDSRSARAFPYGNVAFPHLPGSAPSWPSLVDTSKQWDYYARREKDRDRERDRDRERDRDRDRERERTRERERERDHSPTPSVFNSDEERYRYREYAERGYERHRASREKEERHRERRHREKEETRHKSSRSNSRRRHESEEGDSHRRHKHKKSKRSKEGKEAGSEPAPEQESTEATPAE
B4: PABPN1 (protein, UniProt Q86U42 1-306)
chain: MAAAAAAAAAAGAAGGRGSGPGRRRHLVPGAGGEAGEGAPGGAGDYGNGLESEELEPEELLLEPEPEPEPEEEPPRPRAPPGAPGPGPGSGAPGSQEEEEEPGLVEGDPGDGAIEDPELEAIKARVREMEEEAEKLKELQNEVEKQMNMSPPPGNAGPVIMSIEEKMEADARSIYVGNVDYGATAEELEAHFHGCGSVNRVTILCDKFSGHPKGFAYIEFSDKESVRTSLALDESLFRGRQIKVIPKRTNRPGISTTDRGFPRARYRARTTNYNSSRSRFYSGFNSRPRGRVYRGRARATSWYSPY

Columns and labels:
[1] = molecular target: PP1^H66K-PNUTS fusion: Avitag PP1α (1-304, H66K) linked by SGSGS to PNUTS (408-940) (UniProt P62136); assay: affinity purification with mass spectrometry
[2] = molecular target: T1, Full length Avitag-PNUTS 1-940; assay: affinity purification with mass spectrometry

| Binder | binding [1] | binding [2] |
| --- | --- | --- |
| B1 | binds | binds |
| B2 | binds | – |
| B3 | binds | – |
| B4 | binds | – |

Results are given in words; binding and its absence hold for the method and conditions named. In cells and extracts the contact can be indirect. Here binding means that the protein was enriched with, or labelled near, the bait; the list need not be complete. For some assays here: Where a sequence is shown, tags or fusion partners need not be part of it.
